Experimental data as given in publication doi:10.1101/2023.08.13.546412 (bioRxiv, 2023).
No constants are given. Whether binding was seen depends on the method and setting. Some entries that bind do so weakly or less than the wild type. Sequences can lack the tags named with a protein.

Assays:
Assay in all cases: two-hybrid
[1] = target: T1, AtSK13-BD (Arabidopsis SHAGGY-like kinase 13, yeast two-hybrid fusion) (Arabidopsis thaliana) (UniProt Q8VZD5)
T1 sequence: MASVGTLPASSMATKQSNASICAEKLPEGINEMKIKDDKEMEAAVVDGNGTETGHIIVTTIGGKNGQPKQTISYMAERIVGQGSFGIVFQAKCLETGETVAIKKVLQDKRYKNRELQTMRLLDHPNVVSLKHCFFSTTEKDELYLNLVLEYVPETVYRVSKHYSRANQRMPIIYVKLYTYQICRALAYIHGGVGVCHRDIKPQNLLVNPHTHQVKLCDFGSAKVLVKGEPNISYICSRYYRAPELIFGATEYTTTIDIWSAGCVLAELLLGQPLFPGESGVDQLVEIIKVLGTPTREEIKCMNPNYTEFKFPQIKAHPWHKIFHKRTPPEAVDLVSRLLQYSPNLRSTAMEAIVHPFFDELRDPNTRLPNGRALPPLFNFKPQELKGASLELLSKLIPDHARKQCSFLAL

[2] = target: T2, AtSK23-BD (Arabidopsis SHAGGY-like kinase 23, yeast two-hybrid fusion) (Arabidopsis thaliana) (UniProt Q39010)
T2 sequence: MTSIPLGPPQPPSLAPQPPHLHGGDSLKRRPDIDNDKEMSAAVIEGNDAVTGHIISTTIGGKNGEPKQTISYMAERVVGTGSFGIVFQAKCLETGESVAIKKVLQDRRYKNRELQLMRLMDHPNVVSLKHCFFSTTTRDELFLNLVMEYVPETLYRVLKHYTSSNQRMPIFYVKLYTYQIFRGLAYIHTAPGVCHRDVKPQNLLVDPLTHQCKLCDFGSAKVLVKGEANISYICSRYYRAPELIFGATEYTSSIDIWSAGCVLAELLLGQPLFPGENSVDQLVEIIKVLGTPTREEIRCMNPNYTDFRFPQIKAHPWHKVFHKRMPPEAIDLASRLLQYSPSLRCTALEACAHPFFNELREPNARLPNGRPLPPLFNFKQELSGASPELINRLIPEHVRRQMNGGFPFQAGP

[3] = target: T3, AtSK41-BD (Arabidopsis SHAGGY-like kinase 41, yeast two-hybrid fusion) (Arabidopsis thaliana) (UniProt Q39019)
T3 sequence: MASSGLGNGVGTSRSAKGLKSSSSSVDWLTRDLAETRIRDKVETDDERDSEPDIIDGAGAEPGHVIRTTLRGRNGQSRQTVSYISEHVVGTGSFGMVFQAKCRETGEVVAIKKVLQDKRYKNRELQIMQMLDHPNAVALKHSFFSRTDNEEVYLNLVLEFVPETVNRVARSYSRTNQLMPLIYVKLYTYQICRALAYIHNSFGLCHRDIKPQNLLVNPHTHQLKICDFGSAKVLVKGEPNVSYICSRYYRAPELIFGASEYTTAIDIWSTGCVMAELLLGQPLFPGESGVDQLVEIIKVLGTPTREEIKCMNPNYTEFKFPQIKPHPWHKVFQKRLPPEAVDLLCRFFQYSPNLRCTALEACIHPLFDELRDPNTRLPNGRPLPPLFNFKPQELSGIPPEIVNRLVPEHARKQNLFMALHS

[4] = target: T4, AtSK42-BD (Arabidopsis SHAGGY-like kinase 42, yeast two-hybrid fusion) (Arabidopsis thaliana) (UniProt Q9FVS6)
T4 sequence: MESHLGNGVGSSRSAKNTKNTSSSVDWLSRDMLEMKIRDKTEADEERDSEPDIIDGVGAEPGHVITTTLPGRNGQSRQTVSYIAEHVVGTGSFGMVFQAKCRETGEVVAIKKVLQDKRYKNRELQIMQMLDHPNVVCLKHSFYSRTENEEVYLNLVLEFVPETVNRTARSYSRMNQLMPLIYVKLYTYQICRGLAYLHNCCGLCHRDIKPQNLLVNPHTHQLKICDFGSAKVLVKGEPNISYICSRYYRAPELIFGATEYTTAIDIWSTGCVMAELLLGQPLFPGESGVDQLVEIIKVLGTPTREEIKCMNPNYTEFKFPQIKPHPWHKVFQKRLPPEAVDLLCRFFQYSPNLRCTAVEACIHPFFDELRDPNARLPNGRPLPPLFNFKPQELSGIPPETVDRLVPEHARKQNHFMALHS

binding [1]: no binding
binding [2]: binds weakly
binding [3]: no binding
binding [4]: no binding
B1: WOX5-AD (WUSCHEL-RELATED HOMEOBOX 5, yeast two-hybrid fusion) (protein, UniProt Q8H1D2 1-182)
chain: MSFSVKGRSLRGNNNGGTGTKCGRWNPTVEQLKILTDLFRAGLRTPTTDQIQKISTELSFYGKIESKNVFYWFQNHKARERQKRRKISIDFDHHHHQPSTRDVFEISEEDCQEEEKVIETLQLFPVNSFEDSNSKVDKMRARGNNQYREYIRETTTTSFSPYSSCGAEMEHPPPLDLRLSFL
